Data on 1 molecule can be found in doi:10.1101/609503.

The chains behind the UniProt entries cited, without tags or fusion partners. Where a name states a change or a piece, a line headed by the entry shows the natural chain unless it says otherwise.
UniProt P0AFS9: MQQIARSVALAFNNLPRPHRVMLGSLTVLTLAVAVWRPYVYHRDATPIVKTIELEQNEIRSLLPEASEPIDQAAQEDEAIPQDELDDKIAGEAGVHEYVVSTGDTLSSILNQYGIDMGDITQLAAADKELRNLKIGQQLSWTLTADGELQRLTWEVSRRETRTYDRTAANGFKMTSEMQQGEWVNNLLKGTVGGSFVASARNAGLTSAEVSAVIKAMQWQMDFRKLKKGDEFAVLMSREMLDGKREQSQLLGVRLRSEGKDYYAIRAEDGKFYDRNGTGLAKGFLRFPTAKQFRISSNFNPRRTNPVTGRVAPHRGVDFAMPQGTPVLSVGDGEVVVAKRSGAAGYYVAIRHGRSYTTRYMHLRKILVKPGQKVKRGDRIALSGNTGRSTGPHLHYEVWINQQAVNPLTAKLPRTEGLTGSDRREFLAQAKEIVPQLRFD

No constants are given. Whether binding was seen depends on the method and setting. Binding calls can cover weak binding; strength is not graded here.

In the experiment the target is MepM (E. coli) (UniProt P0AFS9). The experiment can be described thus: MST.

B1: MepS (enzyme, UniProt P0AFV4 27-188)
chain: CSANNTAKNMHPETRAVGSETSSLQASQDEFENLVRNVDVKSRIMDQYADWKGVRYRLGGSTKKGIDCSGFVQRTFREQFGLELPRSTYEQQEMGKSVSRSNLRTGDLVLFRAGSTGRHVGIYIGNNQFVHASTSSGVIISSMNEPYWKKRYNEARRVLSRS
modifications: NT647 RED-NHS dye on amines where used as the labelled partner (fl-MepS)
As to B1, the binding result is “binds”.
